Data as given in article PMC8576121.
These are yes or no findings as the source states them, for the method shown. In cells and extracts the contact can be indirect. Here binding means that the protein was enriched with, or labelled near, the bait; the list need not be complete. Values belong to the binder of their own block, whether it stands above or below them.

Columns and labels:
Experiment in all cases: affinity purification with mass spectrometry; N-His6 bait overproduced in H. volcanii; cytoplasmic extract on nickel chelating sepharose at room temperature in 2.1 M NaCl, 20 mM HEPES, 20 mM imidazole; four washes with 30 mM imidazole, elution with 700 mM imidazole; no RNase step, no cross-linking; co-isolated proteins identified by LC-MS/MS; three biological replicates; proteins found in the empty-vector or DHFR controls removed
[1] = target: T1, DNA-directed RNA polymerase subunit Rpo11 (Haloferax volcanii) (UniProt D4GVL8)
T1 sequence: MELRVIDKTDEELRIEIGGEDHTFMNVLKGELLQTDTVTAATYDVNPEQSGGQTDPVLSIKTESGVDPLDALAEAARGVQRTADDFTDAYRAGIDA

[2] = target: T2, DNA-directed RNA polymerase subunit Rpo2N (Haloferax volcanii) (UniProt D4GZX4)
T2 sequence: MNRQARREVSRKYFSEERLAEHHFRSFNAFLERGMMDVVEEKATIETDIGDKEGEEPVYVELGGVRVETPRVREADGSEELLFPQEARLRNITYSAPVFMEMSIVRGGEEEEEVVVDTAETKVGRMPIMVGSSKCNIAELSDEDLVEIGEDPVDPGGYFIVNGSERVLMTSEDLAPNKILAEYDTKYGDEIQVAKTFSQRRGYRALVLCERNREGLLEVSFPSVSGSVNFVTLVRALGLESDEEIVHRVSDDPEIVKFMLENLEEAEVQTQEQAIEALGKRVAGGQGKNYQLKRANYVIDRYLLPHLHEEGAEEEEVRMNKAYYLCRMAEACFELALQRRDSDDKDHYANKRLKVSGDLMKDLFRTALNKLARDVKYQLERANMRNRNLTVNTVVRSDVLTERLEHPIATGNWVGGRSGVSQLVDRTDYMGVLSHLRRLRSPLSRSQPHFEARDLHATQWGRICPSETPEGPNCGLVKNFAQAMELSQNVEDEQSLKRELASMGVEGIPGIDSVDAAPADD

[3] = target: T3, DNA-directed RNA polymerase subunit Rpo3 (Haloferax volcanii) (UniProt D4GWY4)
T3 sequence: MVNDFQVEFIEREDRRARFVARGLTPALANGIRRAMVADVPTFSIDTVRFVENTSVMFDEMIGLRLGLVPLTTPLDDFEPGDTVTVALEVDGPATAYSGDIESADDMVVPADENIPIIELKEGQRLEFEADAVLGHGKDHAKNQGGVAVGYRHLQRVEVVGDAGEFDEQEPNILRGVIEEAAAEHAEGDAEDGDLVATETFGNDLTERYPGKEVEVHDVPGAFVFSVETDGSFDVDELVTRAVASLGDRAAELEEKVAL

[4] = target: T4, DNA-directed RNA polymerase subunit Rpo5 (Haloferax volcanii) (UniProt D4GZX3)
T4 sequence: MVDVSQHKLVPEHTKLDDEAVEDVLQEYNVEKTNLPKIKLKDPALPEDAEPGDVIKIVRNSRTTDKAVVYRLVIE

[5] = target: T5, DNA-directed RNA polymerase subunit Rpo1C (Haloferax volcanii) (UniProt D4GZX7)
T5 sequence: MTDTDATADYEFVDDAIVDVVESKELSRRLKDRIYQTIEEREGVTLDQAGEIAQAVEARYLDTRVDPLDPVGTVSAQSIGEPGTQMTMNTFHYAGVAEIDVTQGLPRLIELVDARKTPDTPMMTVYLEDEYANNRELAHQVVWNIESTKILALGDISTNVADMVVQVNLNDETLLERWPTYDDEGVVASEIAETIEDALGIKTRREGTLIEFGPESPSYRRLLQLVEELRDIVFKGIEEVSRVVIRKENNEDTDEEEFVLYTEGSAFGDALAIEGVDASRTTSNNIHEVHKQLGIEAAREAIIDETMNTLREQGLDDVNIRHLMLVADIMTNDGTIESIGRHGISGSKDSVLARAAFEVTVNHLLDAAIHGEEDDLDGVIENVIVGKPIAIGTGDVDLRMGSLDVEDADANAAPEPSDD

[6] = target: T6, DNA-directed RNA polymerase subunit Rpo1N (Haloferax volcanii) (UniProt D4GZX6)
T6 sequence: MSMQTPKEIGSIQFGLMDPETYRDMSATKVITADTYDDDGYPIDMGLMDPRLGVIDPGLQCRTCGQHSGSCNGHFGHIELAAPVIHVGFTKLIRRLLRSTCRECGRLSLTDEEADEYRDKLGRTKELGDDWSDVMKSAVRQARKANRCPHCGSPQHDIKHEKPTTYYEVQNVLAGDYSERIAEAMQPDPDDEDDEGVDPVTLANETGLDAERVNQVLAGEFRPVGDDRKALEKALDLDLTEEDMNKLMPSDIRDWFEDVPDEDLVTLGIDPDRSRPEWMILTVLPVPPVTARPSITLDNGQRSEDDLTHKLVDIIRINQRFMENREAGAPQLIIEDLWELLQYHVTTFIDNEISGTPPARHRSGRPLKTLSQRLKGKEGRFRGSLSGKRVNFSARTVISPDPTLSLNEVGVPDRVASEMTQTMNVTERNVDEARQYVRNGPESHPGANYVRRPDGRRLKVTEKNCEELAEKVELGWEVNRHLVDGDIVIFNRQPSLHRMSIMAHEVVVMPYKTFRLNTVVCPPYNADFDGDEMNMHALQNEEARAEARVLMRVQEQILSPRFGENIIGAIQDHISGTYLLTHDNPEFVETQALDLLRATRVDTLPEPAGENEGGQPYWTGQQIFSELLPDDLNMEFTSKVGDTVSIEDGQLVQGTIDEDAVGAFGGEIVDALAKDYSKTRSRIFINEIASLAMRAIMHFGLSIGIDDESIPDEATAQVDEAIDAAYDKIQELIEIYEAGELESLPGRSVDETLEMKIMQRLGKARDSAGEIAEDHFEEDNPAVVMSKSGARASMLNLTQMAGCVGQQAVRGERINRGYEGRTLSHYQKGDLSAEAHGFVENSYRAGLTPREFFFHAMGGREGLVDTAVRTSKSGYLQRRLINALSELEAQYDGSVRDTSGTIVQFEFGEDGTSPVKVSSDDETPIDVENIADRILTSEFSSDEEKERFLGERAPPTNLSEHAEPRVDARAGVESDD

binding [5]: binds
binding [2]: binds
binding [6]: binds
binding [4]: binds
B2: DNA-directed RNA polymerase subunit Rpo11 (protein, UniProt D4GVL8 1-96)
chain: T1 sequence

binding [4]: binds
B3: RNA polymerase auxiliary subunit RpoF (protein, UniProt D4GWA3 1-118)
chain: MTIFKEKLDEEYLTTSEVKELLAEVEAERAADEEREMRYELARAIEHVNRFAHLDPEESRELVEELAELEKVDGPTAIKIADLLPQSRDELRAVFAQQRYALSGDELDEILNVVAKYV

More lines, now with the values behind:

B1: DNA-directed RNA polymerase subunit Rpo1N (protein, UniProt D4GZX6 1-976)
chain: T6 sequence
binding [1]: binds
binding [2]: binds
binding [3]: binds
binding [4]: binds

B4: DNA-directed RNA polymerase subunit Rpo3 (protein, UniProt D4GWY4 1-259)
chain: T3 sequence
binding [5]: binds
binding [2]: binds
binding [6]: binds
binding [4]: binds

B5: DNA-directed RNA polymerase subunit Rpo1C (protein, UniProt D4GZX7 1-419)
chain: T5 sequence
binding [1]: binds
binding [2]: binds
binding [3]: binds
binding [4]: binds
